Assay results reported in CN113045663A.
Results are given in words; binding and its absence hold for the method and conditions named. Some binding calls cover weakened binding; strength is not graded here.

T1: 重组HE4抗原 (GenBank: AAO52683.1) (human) (UniProt Q14508)
T1 sequence (looked up): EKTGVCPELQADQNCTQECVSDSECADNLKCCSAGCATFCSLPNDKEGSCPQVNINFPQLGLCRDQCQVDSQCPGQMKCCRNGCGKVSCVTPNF

B1: 抗HE4纳米抗体1A8 (VHH)
VHH: QLQESGGGLVQAGDSLRLSCAASGPRFSSYGMGWFRQAPGKEREFVAAISMSGTMTDYTDSVKGRFTISRDNAKNTVYLQMNSLKPDDTAVYCCAAGGRRGWGRALFAYDYWGQGTQVTVSS
B2: 纳米抗体3C8 (VHH)
VHH: QLQESGGGLVQAGGSVRLSCAASGRTFRRYHMGWFRQTPGKEREFVAAISWSGGTTYYAESVKGRFTISRDNAKNTIYLQMNSLKPEDTAVYYCAPTYGNYWHPSGYWGQGTQVTVSS

Legend:
[1] = molecular target: T1, 重组HE4抗原 (GenBank: AAO52683.1) (human); experiment: ELISA additivity on coated HE4 antigen
[2] = molecular target: T1, 重组HE4抗原 (GenBank: AAO52683.1) (human); experiment: SPR, Biacore sequential injection on antigen chip

Row | Binder | binding [1] | binding [2]
1 | B1 | binds | binds
2 | B2 | binds | binds
